Some of the results follow.

By UniProt entry, the sequences of proteins in these tests, tags left out.
UniProt Q0JBA9, entry or part of it: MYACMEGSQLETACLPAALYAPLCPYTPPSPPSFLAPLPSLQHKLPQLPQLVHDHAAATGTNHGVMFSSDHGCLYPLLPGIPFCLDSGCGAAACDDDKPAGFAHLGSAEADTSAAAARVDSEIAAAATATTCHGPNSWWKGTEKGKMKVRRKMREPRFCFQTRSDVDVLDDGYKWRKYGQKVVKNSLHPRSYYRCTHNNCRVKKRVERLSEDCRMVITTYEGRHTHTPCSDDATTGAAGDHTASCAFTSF

The target of the assay is OsWRKY34 (Oryza sativa, UniProt Q0JBA9 1-250). Nature of the assay: protein-binding microarray (RPBM); PBS, 2% BSA, 51.3 ng/ul salmon testes DNA, 50 uM zinc acetate, 200 nM TF, 25 C, 1 h; high values mean tight binding. As to conditions: protein: recombinant; tags: N-terminal polyhistidine and DsRed monomer fusion (pET32a); label: CyDye5-dUTP incorporated in the synthesized complementary strand; 3' TTTTT single-stranded linker to array surface; dsDNA, one strand shown. An outline of the steps:
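The binding signal for each feature is its fluorescence intensity in arbitrary units. An Axon 4000B scanner was used to read a custom Agilent array that had been made double-stranded with Cy5-dUTP primer extension, blocked with 2% BSA, incubated at 25 °C for 1 h with 200 nM protein in PBS, 2% BSA, salmon testes DNA and 50 µM zinc acetate, and washed. The protein was an N-terminal polyhistidine–DsRed transcription factor fusion from E. coli BL21-CodonPlus, purified on Ni–NTA.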
As for “CCACATGCCACATATTTCGTCCGTTTGAGTTTATTTTTTACGGAGTCACCTAGTGCAG”, the binding signal is 15700 fluorescence intensity (a.u.).

Consider “ACAATGCCGTACTTAGAACCGAGCTACCGCCGTCGCCACCCGGAGTCACCTAGTGCAG”, for which the binding signal was 8880 fluorescence intensity (a.u.).

For “ATGATAGTTGAGGGACCCGTTGTATCTGGTTTTGGGGTTCCGGAGTCACCTAGTGCAG”, the binding signal was 8400 fluorescence intensity (a.u.).

Consider “AGAAACCCTCGCCTCGCCGCCGTCGACTCGACTCGTACCGCGGAGTCACCTAGTGCAG”, for which the binding signal is 9020 fluorescence intensity (a.u.).

“TACTAATTTAAGTTTGTATTTTGGTTGGTTCAGATTTGCACGGAGTCACCTAGTGCAG”: the binding signal is 9120 fluorescence intensity (a.u.).

“CATCACTGTTCTCCCGCCCTTTCTCTTCCTTTCCCCTGCCCGGAGTCACCTAGTGCAG”: the binding signal was 8510 fluorescence intensity (a.u.).

Take “TCCGATGGAGTCCTATTTTTTTTCCACATAATACAATTAACGGAGTCACCTAGTGCAG”: the binding signal was 8970 fluorescence intensity (a.u.).

Take “CTTGCATTTCTTTTATTATGTTTTACACCTCTCCTAAAATCGGAGTCACCTAGTGCAG”: the binding signal was 9210 fluorescence intensity (a.u.).

Consider “GCTTTGGATTGGGTCGAGGTGGGTAATTCGTCCGGTATTACGGAGTCACCTAGTGCAG”, for which the binding signal is 15600 fluorescence intensity (a.u.).

On to “CTATCTTTCTCATCCGATTCCTATGTTTTTCCTGTGGTCCCGGAGTCACCTAGTGCAG”, for which the binding signal was 8590 fluorescence intensity (a.u.).

For “GCATCGTACCAACTGAGCAAGCAGCAAACGACTACTTTCTCGGAGTCACCTAGTGCAG”, the binding signal was 8160 fluorescence intensity (a.u.).

As to “TCTTCGGTTTTTATAAATTGCCGCTTGATATTTTCTGATACGGAGTCACCTAGTGCAG”, the binding signal was 9030 fluorescence intensity (a.u.).

Take “TGCATCGTTAATTTTTTATATGGTTTGCTAGTCAAACCCTCGGAGTCACCTAGTGCAG”: the binding signal was 9200 fluorescence intensity (a.u.).

Consider “TCTTTTGGACCATATTACCCCTATCTTCTCCATTCATCCCCGGAGTCACCTAGTGCAG”, for which the binding signal was 10400 fluorescence intensity (a.u.).

As for “GTCTTATTTCTCCTCCCGTAGCAGGTACGCTAGATTATAGCGGAGTCACCTAGTGCAG”, the binding signal is 9590 fluorescence intensity (a.u.).

Regarding “TATTTCCTGCGATTTTCTGTGGTTTGTTCTGGGCGGCACTCGGAGTCACCTAGTGCAG”, the binding signal was 11000 fluorescence intensity (a.u.).

For the sequence “TTCTTGCCATCCCGTCGCTCCCAATCTCCACCGAGGTAGGCGGAGTCACCTAGTGCAG”, the binding signal was 8400 fluorescence intensity (a.u.).

Consider “CCTCTACCTCCGCCGCACGTGCCGCATCTTCCGCCGCCTCCGGAGTCACCTAGTGCAG”, for which the binding signal is 13000 fluorescence intensity (a.u.).

Take “GTGTGGTCTGTGGAGTGTATGGTTGATTTGGTTGGTAATTCGGAGTCACCTAGTGCAG”: the binding signal is 10400 fluorescence intensity (a.u.).

Consider “TGTGTAGTGTGGTTTGCTGCTTCGCTTCAATAATAGTAGTCGGAGTCACCTAGTGCAG”, for which the binding signal is 9760 fluorescence intensity (a.u.).

As to “GGGCGTATTCCATCTCCGTCGTCCTGCATGCACCGCCCATCGGAGTCACCTAGTGCAG”, the binding signal is 11200 fluorescence intensity (a.u.).

“CGCCGCCGATATCCGTCGTCCTAGCGTCGCCTTAATCCTCCGGAGTCACCTAGTGCAG”: the binding signal was 8760 fluorescence intensity (a.u.).

For “GTCCTTATTCTTATTCCACGGTTGATTTCCTGAACTAACCCGGAGTCACCTAGTGCAG”, the binding signal is 9270 fluorescence intensity (a.u.).

In the case of “TTTCGTCGTGACGAGTCACGTATCGCTACTTGCAAACTGCCGGAGTCACCTAGTGCAG”, the binding signal was 8220 fluorescence intensity (a.u.).

On to “ACACAGCTTTTCTACTACATTTTCTTGGGTTTCTTGAATGCGGAGTCACCTAGTGCAG”, for which the binding signal was 8680 fluorescence intensity (a.u.).

For the sequence “CCCCTACAAGTACCTCTGACCGCTTCTTTAGCACATCAACCGGAGTCACCTAGTGCAG”, the binding signal was 12500 fluorescence intensity (a.u.).

As for “TGTCTCTCTTTGACATCTTGTTTCCCATAACCTAAAGATACGGAGTCACCTAGTGCAG”, the binding signal is 8260 fluorescence intensity (a.u.).

For the sequence “AAATTTGTACCATCTTGTTGTCCATCATTCTTGACAAGAGCGGAGTCACCTAGTGCAG”, the binding signal is 8080 fluorescence intensity (a.u.).

Consider “GAGTTGGGTTGGAGTGGTTTGGATCGCTGCTTCACTAGGGCGGAGTCACCTAGTGCAG”, for which the binding signal is 27400 fluorescence intensity (a.u.).

Turning to “TATAGATCCTCGTTCCAACATATACCCCAATACACTAATCCGGAGTCACCTAGTGCAG”, the binding signal is 9810 fluorescence intensity (a.u.).

For the sequence “GATTTAGTGAAGTGTATCTTTGACCACTTGATGGATTGTTCGGAGTCACCTAGTGCAG”, the binding signal was 8360 fluorescence intensity (a.u.).

“AGTGAATAGCTCATTGTATCCTTTTTACTTGCAAGGCTTACGGAGTCACCTAGTGCAG”: the binding signal is 11100 fluorescence intensity (a.u.).

Consider “CCAGCTGTGTGTGTGCACGCGGTTTTCCAATCGATTCTTCCGGAGTCACCTAGTGCAG”, for which the binding signal is 9270 fluorescence intensity (a.u.).

On to “CTGTTGGCTTTCAACATGAATTTGTTTTCCTTTGCACGGCCGGAGTCACCTAGTGCAG”, for which the binding signal was 8720 fluorescence intensity (a.u.).

Turning to “TTTCCTGAGCTGCTGTCTCCCGTTCTCTTTCTGAGAGCAACGGAGTCACCTAGTGCAG”, the binding signal is 8400 fluorescence intensity (a.u.).

Consider “CTTTATACTGTATTTATACCTTTCCTATTGGTTTCAGATACGGAGTCACCTAGTGCAG”, for which the binding signal is 8880 fluorescence intensity (a.u.).

In the case of “TTCTATTTTACCTCTCGTCTCTCTCCTCGCGGTCGCTTCTCGGAGTCACCTAGTGCAG”, the binding signal is 12800 fluorescence intensity (a.u.).

Consider “ACCAAAACGCCCTCTGCCTCGCAGGAGACCGGTCAACGCGCGGAGTCACCTAGTGCAG”, for which the binding signal was 9010 fluorescence intensity (a.u.).

As for “AGGTGAGTTGGTTGGTGGGTGCAGATAGTGTTGGATGCAGCGGAGTCACCTAGTGCAG”, the binding signal is 8200 fluorescence intensity (a.u.).

“CTTGCTCTCTCGTTTGCTCTTCTACTGCTCATCCTCCTCCCGGAGTCACCTAGTGCAG”: the binding signal is 13700 fluorescence intensity (a.u.).

As for “CACATTTTTTCTTTATTTTTCGGCCTCATATTCAATTTTGCGGAGTCACCTAGTGCAG”, the binding signal was 8810 fluorescence intensity (a.u.).

As for “TCTTTTTCTTCATTTTCGGTTGCTAGGTCACATTTGTCCTCGGAGTCACCTAGTGCAG”, the binding signal is 10100 fluorescence intensity (a.u.).

The values are drawn from paper PMC7819943, “Rice protein-binding microarrays: a tool to detect cis-acting elements near promoter regions in rice”.
